Measurements taken from patent US20090275474A1, “PESTICIDAL APPLICATIONS OF DIMETHYL CYANAMIDE” (Metbro Distributing L.P., priority 2008, published 2009).
Some of these results come from one statement about several compounds together. For at least one compound, name, drawing or mass did not settle the structure.

System: Yellow nutsedge [Cyperus esculentus]
Experiment: Example 3 herbicidal pot test, control of yellow nutsedge
Format: in vivo
Details: per kg soil

| Compound | rates required for control of yellow nutsedge [mgs] |
| --- | --- |
| N#CN [hydrogen cyanamide, Hydrogen cyanamide, reference compound] | > 400 |
| CN(C)C#N [dimethyl cyanamide, Dimethyl cyanamide] | > 400 |
